This is one part of the list. The main result of the screen is listed elsewhere. These columns were measured beside it and carry no call. The list favours compounds with an active or inconclusive main result. The note in brackets gives the kind of curve behind each potency; many fits are weak.

The test in a line: qHTS Assay to Find Inhibitors of Chronic Active B-Cell Receptor Signaling. The settings on record: ABC-DLBCL IkBa-CBG/CBR reporter, luminescence ratio (green luciferase fused to IkBa over red control in TMD8 lymphoma cells), 4 h. Summed up: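 TMD8 ABC-DLBCL cells carrying doxycycline-inducible green luciferase fused to IkappaBalpha plus unfused red luciferase were exposed to compounds (up to 46 uM) for 4 hrs at 37C. Activity came from the overlap-corrected green/red luminescence ratio.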

Setting [1] is: measured here: CBR red luminescence, cell number.
Where [2] appears, read: measured here: IkBa-CBG green luminescence.

Turning to `C/C(=N\NC(=O)c1ccccc1O)c1cccs1`, under setting [1], the AC50 was 1.78 µM [falling, full curve, poor fit].
Turning to `CN(C)C1=C(Cl)C(=O)N(c2ccc(Cl)c(Cl)c2)C1=O`, the AC50 under setting [1] is 12.6 µM [falling, single point].
On the same count and under the same terms, for `COc1ccc(N(C)C(=O)c2cc3c(s2)-c2ccccc2S(=O)(=O)C3)cc1` the value was 0.251 µM [rising, full curve, poor fit]; for `Cc1cc([N+](=O)[O-])ccc1N=Nc1c(N)[nH]n(-c2ccccc2)c1=O`, 0.631 µM [falling, full curve]; for `COc1cccc(NC(=O)c2cc3ccccc3o/c2=N\O)c1`, 4.47 µM [falling, full curve].
As to `CCc1cc(=O)oc2cc(C)cc(OCC(=O)NCCc3c[nH]c4ccccc34)c12`, the AC50 under setting [1] was 22.4 µM [falling, single point].
`CSCCC(NC(=O)COc1ccccc1)C(=O)N1CCOCC1` (configuration not stated): the AC50 under setting [1] was 29.1 µM [rising, single point].
Still for that read-out and setting: the value for `O=C(CNC(=O)c1cccc(F)c1)OCc1cc(=O)n2cc(Br)ccc2n1` was 16.4 µM [rising, single point].
Take `COCC(C)n1c(C)cc(C(=O)COc2ccc(N(C)S(=O)(=O)c3ccc(NC(C)=O)cc3)cc2)c1C` (configuration not stated): the concentration at half-maximal activity (AC50) under setting [1] was 0.00411 µM [rising, full curve, poor fit].
On the same count and under the same terms, the value for `Cc1cccc(CS(=O)(=O)Cc2ccc(C(=O)NCc3ccc(F)cc3)o2)c1` was 17.8 µM [rising, single point]; that for `Cn1cc(/C=N\NC(=O)C2COc3ccccc3O2)c2ccccc21` (configuration not stated) was 23.1 µM [rising, partial curve, poor fit].
On to `CCCCOc1ccc(CSC(=N)N)cc1Cl`, for which the AC50 under setting [1] was 11.2 µM [falling, partial curve, poor fit].
On to `COc1cccc(NC(=O)c2cnc(SCC(=O)N3CCCc4ccccc43)n(C)c2=O)c1`, for which, under setting [1], the AC50 is 15.8 µM [falling, partial curve, poor fit].
In the case of `Cc1cccc(OCC(=O)N2CCC3(CC2)CC(=O)c2ccccc2O3)c1`, under setting [1], the AC50 is 20.6 µM [falling, single point].
With `CCOc1ccc(C(=O)SC2=NCCS2)cc1`, under setting [1], the AC50 is 10.3 µM [falling, partial curve].
The same measure, in the same setting: the value for `O=C(CNC(=O)c1cccs1)N=Nc1c(O)[nH]c2ccc([N+](=O)[O-])cc12` was 17.8 µM [falling, single point]; that for `Cn1cccc1CC(=O)NNC(=S)NC(=O)c1ccc(F)cc1` was 35.5 µM [falling, partial curve, poor fit]; that for `COc1cccc(NC(=O)CSc2nnc(-c3ccc(C)cc3)o2)c1` was 1.84 µM [falling, full curve].
Regarding `O=C(NCC(=O)N(c1ccccc1F)C(C(=O)NCC1CCCO1)c1ccccc1)c1ccco1` (configuration not stated), the AC50 under setting [1] was 16.4 µM [rising, single point].
On the same count and under the same terms, the value for `Cc1ccccc1C(=O)NNC(=O)c1cccc(Br)c1` was 12.6 µM [falling, partial curve, poor fit].
Take `COc1ccc(OC)c(NC=C2C(=O)OC(C)(C)OC2=O)c1`: the concentration at half-maximal activity (AC50) under setting [1] was 8.91 µM [falling, partial curve, poor fit].
For `O=C(NC(=S)N1CCN(c2ccc(Cl)cc2[N+](=O)[O-])CC1)c1ccco1`, under setting [1], the AC50 is 0.146 µM [rising, full curve, poor fit].
The same measure, in the same setting: the value for `Cc1ccc(-c2nnc(COC(=O)c3cccs3)o2)cc1` was 0.398 µM [rising, full curve].
Still for that read-out and setting: for `Cc1ccc(S(=O)(=O)N2C(=O)CCC2C(=O)O/N=C(\N)c2ccccc2)cc1` (configuration not stated) the value was 3.55 µM [rising, full curve, poor fit].
`OCCCNc1nccc(-c2cc(Nc3cccc(Cl)c3)ncn2)n1`: under setting [1], the concentration at half-maximal activity (AC50) is 4.47 µM [falling, full curve, poor fit].
The same measure, in the same setting: the value for `CCOC(=O)c1ccc(Nc2c(-c3ccc(N(C)C)cc3)nc3nc[nH]n23)cc1` was 8.91 µM [falling, partial curve, poor fit]; that for `COCCCNc1oc(-c2ccccc2Cl)nc1C#N` was 22.4 µM [rising, single point].
Consider `Clc1ccc(-c2c[n+](Cc3ccc(Cl)cc3Cl)c3n2CCCCC3)cc1`, for which the half-maximal activity concentration (AC50) under setting [1] was 15.8 µM [falling, single point].
On the same count and under the same terms, for `Cn1c(=O)c2cc(S(=O)(=O)Nc3cccc(F)c3)ccc2n(C)c1=O` the value was 29.1 µM [falling, single point]; for `CSc1nnc(C)c(=O)n1COC(=O)c1cc(Cl)ccc1[N+](=O)[O-]`, 35.5 µM [falling, single point]; for `NC(=O)c1c(/N=C/c2cccnc2)sc2c1CCCC2`, 0.112 µM [rising, full curve, poor fit].
For `Cc1ccc(Cn2cc(C(=O)NN)c(=O)c3ccc(F)cc32)cc1`, under setting [2], the AC50 was 35.5 µM [falling, single point].
As to `O=C(NCCN1C(=O)C2C3C=CC(C3)C2C1=O)Nc1cccnc1` (configuration not stated), the AC50 under setting [1] was 3.26 µM [rising, single point].
For the molecule `N#CC(C(=O)c1ccccc1)=C1SCCS1`, the AC50 reads like this: under setting [1], 3.98 µM [rising, partial curve, poor fit]; under setting [2], 6.31 µM [falling, single point].
For `Cc1ccc(N(CC(=O)NC(C)(C)C)C(=O)CCC(=O)Nc2nccs2)c(C)c1`, the AC50 under setting [1] is 35.5 µM [falling, single point].
Take `CCN(CC)S(=O)(=O)c1ccc(N2CCCC2)c(NC(=O)C2CCCCC2)c1`: under setting [1], the AC50 was 6.31 µM [rising, single point].
Still for that read-out and setting: the value for `CC(=O)N1CCN(c2ccc(NC(=O)c3ccc(Cl)cc3)cc2)CC1` was 35.5 µM [rising, single point]; that for `COC(=O)c1ccc(NC(=O)CSc2nccn2CCc2ccccc2)cc1` was 29.1 µM [rising, single point].
Consider `CC(NC(=O)c1cccs1)c1nnc(SCc2ccc(Cl)cc2Cl)n1C` (configuration not stated), for which the AC50 under setting [1] was 7.31 µM [falling, partial curve, poor fit].
Still for that read-out and setting: for `O=C(COC(=O)c1cc([N+](=O)[O-])ccc1N1CCOCC1)c1ccc(F)cc1` the value was 23.1 µM [rising, single point].
The same measure, in the same setting: for `N#Cc1cc(-c2ccccc2)oc1/N=C/c1ccccc1O` the value was 20.6 µM [falling, partial curve, poor fit].

The record behind these values is PubChem BioAssay AID493014 (National Center for Advancing Translational Sciences (NCATS), 2011).
